In PubChem BioAssay AID651640 (Broad Institute, 2012):
About 6,000 (1.7%) of roughly 350,000 compounds were called active. The inconclusive results got no clear call from the source; some entries with a clear call stand among them for comparison. Cut-off read from the data, not from the text of the source: active = CPE inhibition above about 20% (passing the limit was not always enough); inconclusive = no clear call, values can overlap the other calls; tested in BHK-21 cells.

Experiment: protection of cells from dengue 2 killing – plate reader, single concentration, primary screen (AID 651640);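 note: 0% = median of neutral control wells and 100% = median of positive control wells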
Settings: DENV2-infected cells, cytopathic effect rescue, at 9.99 µM, hits give high values

Compound | CPE inhibition
COc1ccccc1N1CCN(/N=C/c2ccc(C(=O)O)cc2)CC1 | inconclusive: 37.5%
C[C@H](NC(=O)c1nc[nH]c1C(=O)N[C@@H](Cc1ccccc1)C(=O)OCc1ccccc1)c1ccccc1 | inactive: -8.74%
C[C@@H]1CCCCO[C@@H](CN(C)C)[C@@H](C)CN([C@H](C)CO)C(=O)c2cc(NC(=O)Cc3ccccc3)ccc2O1 | inconclusive: 73.3%
CC(C)OC(=O)c1ccc(NCc2cc(O)ccc2O)cc1 | active: 51.4%
COCC(=O)Nc1ccc2c(c1)[C@H]1C[C@@H](CC(=O)NCc3ccc(OC)cc3)O[C@H](CO)[C@H]1O2 | inconclusive: 22.7%
O=S(=O)(N[C@H]1CC[C@@H](CCn2cc(-c3cccnc3)nn2)O[C@H]1CO)c1ccccc1 | active: 27.6%
Cc1sc(NC(=O)C2=COCCO2)nc1-c1ccc(Br)cc1 | inconclusive: 24.3%
CCc1ccc([C@@H]2CC(=O)[C@@H]3CN(S(=O)(=O)c4ccccc4)[C@H](c4ccc(OC)cc4)C[C@@H]3N2S(=O)(=O)c2ccc(C)cc2)cc1 | inconclusive: 24.6%
COCC#Cc1ccc([C@H]2[C@@H](CO)N3C(=O)CN(C(=O)CN4CCOCC4)C[C@H]23)cc1 | inconclusive: 45.2%
O=C1C=C(c2cccc3c2sc2ccccc23)C[C@@H](c2ccc(Cl)cc2)C1 | inconclusive: 24.3%
CCOc1cc(C(=O)Nc2ccc(C)cc2O)ccc1OCC(=O)N1CCOCC1 | inconclusive: 66.2%
COc1ccc(CNC(=O)CC[C@H]2O[C@@H](n3cnc4c(NC(=O)c5ccccc5)ncnc43)[C@H](O)[C@@H]2O)cc1 | inconclusive: 21.4%
COc1ccc(-c2coc3cc(O)ccc3c2=O)cc1O | inconclusive: 107%
CCOC(=O)N1CCC2CC1c1cc(Cl)ccc12 (stereo not given) | inconclusive: 91.6%
Cc1ncc([N+](=O)[O-])n1Cc1ccccc1 | active: 50.5%
O=C(C[C@@H]1CC[C@H]2[C@@H](COC[C@@H](O)CN2Cc2ccc(Oc3ccccc3)cc2)O1)N1CCc2ccccc2C1 | inactive: 4.68%
O=C(C[C@H]1C=C[C@@H](NC(=O)C2CCOCC2)[C@H](CO)O1)NCC1CC1 | inactive: 5.71%
COCCNC(=O)C[C@H]1CC[C@H]2[C@@H](COc3ccc(NC(=O)CC(F)(F)F)cc3C(=O)N2C)O1 | inconclusive: 69.9%
NC(=O)c1oc2ccccc2c1NC(=O)CCc1ccccc1 | inconclusive: 52.8%
Cc1ccccc1NS(=O)(=O)c1nnc(NC(=O)c2ccccc2F)s1 | inconclusive: 30%
O=C(O)C[C@@H](O)C(=O)O | inconclusive: 21.5%
O=C(NC(=S)Nc1ccc(Cl)cc1Cl)C1CC1 | active: 86.2%
C[C@H]1O[C@H](O[C@H]2[C@H](O[C@@H]3CC[C@@]4(C)C(CC[C@]5(C)C4CC=C4[C@@H]6CC(C)(C)CC[C@]6(C(=O)O[C@@H]6O[C@H](CO)[C@@H](O)[C@H](O)[C@H]6O)CC[C@]45C)C3(C)C)O[C@H](C(=O)O)[C@@H](O)[C@@H]2O)[C@@H](O)[C@@H](O)[C@@H]1O (stereo not given in full) | active: 109%

Compound | CPE inhibition
O=[N+]([O-])c1ccc(N/N=C/c2cccnc2)cc1 | inconclusive: 33.8%
CC(C)[C@H](NC(=O)c1cccs1)C(=O)N1CCC[C@H]1C(=O)NCc1ccccc1 | active: 26.2%
C[C@H]1CN([C@@H](C)CO)C(=O)c2cc(C3=CCCC3)cnc2O[C@@H]1CN(C)C(=O)NC1CCCC1 | inactive: -1.83%
Cc1ccnc(NC(=O)c2ccc(S(=O)(=O)N3CCCCCC3)cc2)c1 | inconclusive: 20.2%
CO[C@@H]1CN(C)C(=O)c2cc(NC(=O)C3CCOCC3)ccc2OC[C@@H](C)N(CC2CCCCC2)C[C@H]1C | inconclusive: 21.4%
Cc1c(NC(=O)CSc2nc3ccccc3c(=O)n2C(C)C)c(=O)n(-c2ccccc2)n1C | inconclusive: 20.2%
CCCCOC(=O)c1ccc(NC(=S)NC(=O)c2c(Br)c(C)nn2C)cc1 | inconclusive: 67.3%
c1ccc(-c2ccccc2OCCCN2CCOCC2)cc1 | inactive: -0.802%
O=C(Nc1ccc2c(c1)[C@H]1C[C@@H](CC(=O)N3CCCCC3)O[C@@H](CO)[C@H]1O2)C1CCC1 | active: 25.9%
CCC(C)c1ccc(S(=O)(=O)N2CCN(CC(O)CN3CCOCC3)CC2)cc1 (stereo not given) | inconclusive: 33.7%
CCOc1ccc(NC(=O)CN(C)C(=O)CCCNC(=O)c2ccc(Cl)cc2)cc1OCC | inconclusive: 21.8%
OC[C@H]1[C@@H](c2ccc(-c3cccc(F)c3)cc2)[C@H]2CN(Cc3cncnc3)CCCCN21 | inconclusive: 25.8%
Cc1noc(C)c1NC(=O)N(C)C[C@@H]1Oc2ccc(NC(=O)Nc3ccc(C(F)(F)F)cc3)cc2CC(=O)N([C@H](C)CO)C[C@@H]1C | inactive: -8.87%
CC(=O)N(c1nc(/C=C\C(=O)O)cs1)c1ccccc1F | inconclusive: 40.5%
COc1ccc(OC)c(C2C(C(=O)Nc3ccccc3OC)=C(C)Nc3nc(CCCO)nn32)c1 (stereo not given) | inactive: 8.41%
Cc1ccc(S(=O)(=O)Nc2ccc3c(c2)C(=O)N([C@H](C)CO)C[C@@H](C)[C@H](CN(C)C(=O)Nc2ccc(C(F)(F)F)cc2)O3)cc1 | inactive: 1.81%
C[C@H](CO)N1C[C@H](C)[C@@H](CN(C)C(=O)CN2CCOCC2)Oc2ncc(C3=CCCC3)cc2C1=O | inactive: -3.97%
C[C@@H]1CN([C@@H](C)CO)C(=O)c2cc(NS(=O)(=O)c3cccs3)ccc2O[C@H]1CN(C)Cc1ccc2c(c1)OCO2 | inconclusive: 20%
CC(=O)c1ccc(OCCCC(=O)Nc2cc(Cl)ccc2-n2cncn2)cc1 | active: 55.6%
C[C@H](CO)N1C[C@H](C)[C@@H](CN(C)Cc2ccncc2)OCCCC[C@H](C)Oc2ccc(NS(C)(=O)=O)cc2C1=O | inconclusive: 21.1%
CCC(=O)N1CCCC(C(=O)Nc2nc3ccccc3n2C)CC1 (stereo not given) | inconclusive: 28.9%
Cc1nonc1C1CCCN1Cc1nc(-c2ccc(F)cc2F)oc1C (stereo not given) | inconclusive: 25.6%

In the list so far, two have a nitro group on carbon:
Compound | CPE inhibition
Cc1ncc([N+](=O)[O-])n1Cc1ccccc1 | active: 50.5%
O=[N+]([O-])c1ccc(N/N=C/c2cccnc2)cc1 | inconclusive: 33.8%
